PubChem BioAssay AID1224830, NIAID – 2016
Shown is one part, drawn at random, of about 18,000 reagents. Over the whole deposit, about 2,900 (16%) got an active call. 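Calls are made per well; low scores hint the gene aids the LPS response, high scores that it dampens it.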 Repeated entries: four replicate wells of each siRNA pool.

Aim: 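Host factors that control LPS-induced TNF expression in human macrophages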 (primary screen)
Cell system: human THP-1 monocytic leukaemia cells, TNF dual-luciferase reporter clone, PMA-differentiated to macrophage-like cells
Knock-down reagent: siRNA pool against human genes, 50 nM
Duration: LPS for 4 h, given about 3 days after siRNA transfection
Treatment: bacterial LPS (TLR4 ligand), 10 ng/ml
Read-out: 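Ratio of firefly to renilla light, scaled to the plate median and expressed as a robust z-score per replicate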
Reading the numbers: TNF reporter robust z-score: higher = stronger TNF reporter response to LPS
Active means: 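a well is active when its z-score exceeds 2.8 or falls below -1.5; control wells carry no call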

gene	TNF reporter robust z-score	Call
WDR45B (GeneID 56270)	-1.45	inactive
WDR45B (GeneID 56270)	-0.7	inactive
WDR45B (GeneID 56270)	-1.08	inactive
WDR45B (GeneID 56270)	-0.41	inactive
USP34 (GeneID 9736)	-1.03	inactive
USP34 (GeneID 9736)	0.73	inactive
USP34 (GeneID 9736)	0.63	inactive
USP34 (GeneID 9736)	0.48	inactive
RPF2 (GeneID 84154)	3.15	active
RPF2 (GeneID 84154)	1.97	inactive
RPF2 (GeneID 84154)	-0.93	inactive
RPF2 (GeneID 84154)	0.02	inactive
CLK1 (GeneID 1195)	-1.05	inactive
CLK1 (GeneID 1195)	-1.51	active
CLK1 (GeneID 1195)	-0.78	inactive
CLK1 (GeneID 1195)	-0.92	inactive
OR1J1 (GeneID 347168)	0.36	inactive
OR1J1 (GeneID 347168)	0.74	inactive
OR1J1 (GeneID 347168)	-0.27	inactive
OR1J1 (GeneID 347168)	0.15	inactive
OR51D1 (GeneID 390038)	1.71	inactive
OR51D1 (GeneID 390038)	3.42	active
OR51D1 (GeneID 390038)	2.04	inactive
OR51D1 (GeneID 390038)	2.06	inactive
GTPBP1 (GeneID 9567)	0.79	inactive
GTPBP1 (GeneID 9567)	2.95	active
GTPBP1 (GeneID 9567)	0.11	inactive
GTPBP1 (GeneID 9567)	-0.07	inactive
GGH (GeneID 8836)	1.74	inactive
GGH (GeneID 8836)	0.29	inactive
GGH (GeneID 8836)	1.79	inactive
GGH (GeneID 8836)	-1.06	inactive
TUBA4A (GeneID 7277)	-1.32	inactive
TUBA4A (GeneID 7277)	-0.99	inactive
TUBA4A (GeneID 7277)	0.11	inactive
TUBA4A (GeneID 7277)	-0.88	inactive
SARDH (GeneID 1757)	1.07	inactive
SARDH (GeneID 1757)	2.59	inactive
SARDH (GeneID 1757)	-0.11	inactive
SARDH (GeneID 1757)	0.76	inactive
IL36A (GeneID 27179)	-0.36	inactive
IL36A (GeneID 27179)	-0.9	inactive
IL36A (GeneID 27179)	-0.77	inactive
IL36A (GeneID 27179)	-0.83	inactive
JTB (GeneID 10899)	-1.35	inactive
JTB (GeneID 10899)	-1.21	inactive
JTB (GeneID 10899)	-0.77	inactive
JTB (GeneID 10899)	-0.96	inactive
CRB1 (GeneID 23418)	2.28	inactive
CRB1 (GeneID 23418)	-0.57	inactive
CRB1 (GeneID 23418)	-0.98	inactive
CRB1 (GeneID 23418)	-0.24	inactive
SOAT1 (GeneID 6646)	-0.67	inactive
SOAT1 (GeneID 6646)	0.15	inactive
SOAT1 (GeneID 6646)	0.02	inactive
SOAT1 (GeneID 6646)	0.43	inactive
ST6GALNAC4 (GeneID 27090)	1.48	inactive
ST6GALNAC4 (GeneID 27090)	0.35	inactive
ST6GALNAC4 (GeneID 27090)	1.07	inactive
ST6GALNAC4 (GeneID 27090)	0.83	inactive
SIL1 (GeneID 64374)	-0.97	inactive
SIL1 (GeneID 64374)	-0.06	inactive
SIL1 (GeneID 64374)	-0.39	inactive
SIL1 (GeneID 64374)	-0.67	inactive
SLIT1 (GeneID 6585)	1.52	inactive
SLIT1 (GeneID 6585)	-0.17	inactive
SLIT1 (GeneID 6585)	-0.08	inactive
SLIT1 (GeneID 6585)	-0.5	inactive
SPACA7 (GeneID 122258)	0.14	inactive
SPACA7 (GeneID 122258)	-0.04	inactive
SPACA7 (GeneID 122258)	0.01	inactive
SPACA7 (GeneID 122258)	0.99	inactive
MLF2 (GeneID 8079)	-0.27	inactive
MLF2 (GeneID 8079)	0.02	inactive
MLF2 (GeneID 8079)	0	inactive
TTLL6 (GeneID 284076)	-0.11	inactive
TTLL6 (GeneID 284076)	-0.98	inactive
TTLL6 (GeneID 284076)	-0.15	inactive
TTLL6 (GeneID 284076)	0.79	inactive
MAP7 (GeneID 9053)	3.2	active
MAP7 (GeneID 9053)	0.47	inactive
MAP7 (GeneID 9053)	-0.89	inactive
MAP7 (GeneID 9053)	-0.76	inactive
PLEKHM3 (GeneID 389072)	0.37	inactive
PLEKHM3 (GeneID 389072)	0.71	inactive
PLEKHM3 (GeneID 389072)	0.19	inactive
PLEKHM3 (GeneID 389072)	0.97	inactive
SCAND1 (GeneID 51282)	1.18	inactive
SCAND1 (GeneID 51282)	2.28	inactive
SCAND1 (GeneID 51282)	1.97	inactive
SCAND1 (GeneID 51282)	2.34	inactive
GRIA2 (GeneID 2891)	0.85	inactive
GRIA2 (GeneID 2891)	0.55	inactive
GRIA2 (GeneID 2891)	-0.14	inactive
GRIA2 (GeneID 2891)	0.58	inactive
RPL27 (GeneID 6155)	-0.71	inactive
RPL27 (GeneID 6155)	-0.86	inactive
RPL27 (GeneID 6155)	-1.4	inactive
RPL27 (GeneID 6155)	-1.63	active
SSH1 (GeneID 54434)	0.06	inactive
SSH1 (GeneID 54434)	-0.26	inactive
SSH1 (GeneID 54434)	0.41	inactive
SSH1 (GeneID 54434)	0.14	inactive
FOLR2 (GeneID 2350)	-0.42	inactive
FOLR2 (GeneID 2350)	0.9	inactive
FOLR2 (GeneID 2350)	0.5	inactive
FOLR2 (GeneID 2350)	0.53	inactive
ELMO2 (GeneID 63916)	0.43	inactive
ELMO2 (GeneID 63916)	2.08	inactive
ELMO2 (GeneID 63916)	1.97	inactive
ELMO2 (GeneID 63916)	2.09	inactive

A run of entries from the list above, for reference:
gene	TNF reporter robust z-score	Call
USP34 (GeneID 9736)	0.48	inactive
RPF2 (GeneID 84154)	3.15	active
RPF2 (GeneID 84154)	1.97	inactive
RPF2 (GeneID 84154)	-0.93	inactive
RPF2 (GeneID 84154)	0.02	inactive
CLK1 (GeneID 1195)	-1.05	inactive
CLK1 (GeneID 1195)	-1.51	active
CLK1 (GeneID 1195)	-0.78	inactive
CLK1 (GeneID 1195)	-0.92	inactive
OR1J1 (GeneID 347168)	0.36	inactive
OR1J1 (GeneID 347168)	0.74	inactive
OR1J1 (GeneID 347168)	-0.27	inactive
OR1J1 (GeneID 347168)	0.15	inactive
OR51D1 (GeneID 390038)	1.71	inactive
OR51D1 (GeneID 390038)	3.42	active
OR51D1 (GeneID 390038)	2.04	inactive
OR51D1 (GeneID 390038)	2.06	inactive
GTPBP1 (GeneID 9567)	0.79	inactive
GTPBP1 (GeneID 9567)	2.95	active
